PubChem BioAssay AID1259424 – University of Nebraska Medical Center, 2018

Screen: 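Seek colon cancer survival genes behaving like KSR1, using a six-gene signature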 (primary screen)
Cells: human HCT116 colon cancer cells
Knock-down reagent: siRNA pool against human genes, 50 nM
Read-out: 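Log2 levels of six mRNAs (branched-DNA multiplex), adjusted by two reference genes and the non-targeting median, then scored against the average KSR1 knockdown pattern as Pearson r and euclidean distance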
Direction: mean correlation with KSR1 profile: higher = expression change more like KSR1 knockdown
Shown is an unselected part of about 14,000 deposited reagents. 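Higher correlation or smaller distance means closer resemblance to KSR1 loss; control wells, including KSR1 knockdowns, recur on many plates.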 Not all columns of the deposit are shown. The record does not give: the time to read-out.

no.	target gene	mean correlation with KSR1 profile
1	PABPN1	-0.331
2	UMOD	-0.563
3	MRPL17	-0.128
4	PCDH7	-0.0962
5	RGS4	0.792
6	IFIH1	-0.517
7	DNM3	-0.244
8	RYR3	-0.186
9	TLR5	-0.477
10	GUF1	0.267
11	POLI	0.206
12	EFNA2	0.7
13	CDKN2A	0.591
14	LDHA	0.481
15	KCNB2	-0.846
16	ABITRAM	-0.0845
17	KRR1	0.549
18	PSD4	0.0127

Continued (2 carried over from the part before).
no.	target gene	mean correlation with KSR1 profile
17	KRR1	0.549
18	PSD4	0.0127
19	DHX8	-0.0218
20	MEN1	0.675
21	KRTAP4-12	0.643
22	DAPP1	0.205
23	BAG1	0.0152
24	SOAT1	0.0216
25	SEC11A	0.286
26	EPYC	-0.531
27	SMAP1	-0.00957
28	SCTR	0.702
29	GSTO1	0.133
30	SERPINH1	-0.344
31	OR2L13	0.505
32	TRIM68	-0.381
33	SLC6A3	-0.753
34	SRSF10	-0.42
